Measurements: patent publication US20030077661A1 (ST JUDE CHILDREN S RESEARCH HOSPITAL, published 2003)
No constants are given. Whether binding was seen depends on the method and setting. In cells and extracts the contact can be indirect. Some binding calls cover weakened binding; strength is not graded here. Where a sequence is shown, tags or fusion partners need not be part of it.

Experiments:
[1] = molecular target: T1, GST fusion protein containing residues 1961-2046 of ATM (GST-ATM^1961-2046) (Homo sapiens (Human)) (UniProt Q13315); experiment: GST co-purification on glutathione-agarose after co-expression in E. coli
T1 sequence: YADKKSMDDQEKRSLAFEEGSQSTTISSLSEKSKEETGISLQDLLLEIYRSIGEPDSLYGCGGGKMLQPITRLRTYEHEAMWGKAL

[2] = molecular target: T2, GST-ATM^1961-2046 fusion protein containing Ser^1981→Ala (Homo sapiens (Human)) (UniProt Q13315); experiment: as above
T2 sequence: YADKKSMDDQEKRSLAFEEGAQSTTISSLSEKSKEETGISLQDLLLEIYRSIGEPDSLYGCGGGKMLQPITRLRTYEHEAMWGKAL

B1: 6×-Histidine (6×-His) fusion protein containing the C-terminal kinase domain of ATM, residues 2712-3056 (enzyme, not shown: small tags and cut ends)
chain: RRQLVKGRDDLRQDAVMQQVFQMCNTLLQRNTETRKRKLTICTYKVVPLSQRSGVLEWCTGTVPIGEFLVNNEDGAHKRYRPNDFSAFQCQKKMMEVQKKSFEEKYEVFMDVCQNFQPVFRYFCMEKFLDPAIWFEKRLAYTRSVATSSIVGYILGLGDRHVQNILINEQSAELVHIDLGVAFEQGKILPTPETVPFRLTRDIVDGMGITGVEGVFRRCCEKTMEVMRNSQETLLTIVEVLLYDPLFDWTMNPLKALYLQQRPEDETELHPTLNADDQECKRNLSDIDQSFDKVAERVLMRLQEKLKGVEEGTVLSVGGQVNLLIQQAIDPKNLSRLFPGWKAWV
With B1 the binding [1] was “binds” and the binding [2] was “binds”.
